Experimental data reported in the supplement of paper PMC10470496.
Counter-ions that a name gives are not always drawn. The list shows a part of the results. Single values are uncertain, as repeats are few or missing.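 The strains were three CDC resistance-bank clinical C. auris isolates from clades III, IV and I, cultured in RPMI-1640 at 35°C. Growth was background-corrected OD600 versus vehicle-only wells on the same plate. A hit needed >50% inhibition in two or more strains plus a plate-corrected B-score exceeding 0.1.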

Key:
Assay in all cases: growth relative to vehicle control (OD600 ratio) (fraction); higher = less inhibition
Conditions in all cases: 24 h
C. auris AR-384 = system: C. auris AR-384
C. auris AR-386 = system: C. auris AR-386
C. auris AR-387 = system: C. auris AR-387

Row | SMILES | growth (C. auris AR-384; 1 µM) | growth (C. auris AR-384; 10 µM) | growth (C. auris AR-386; 1 µM) | growth (C. auris AR-386; 10 µM) | growth (C. auris AR-387; 1 µM) | growth (C. auris AR-387; 10 µM)
1 | Oc1ccc(O)cc1 [Hydroquinone] | 1.14 | 1.2 | 0.96 | 0.9 | 0.97 | 1.18
2 | CC(C)c1nc(CN(C)C(=O)N[C@@H](CCN2CCOCC2)C(=O)N[C@H](CC[C@H](Cc2ccccc2)NC(=O)OCc2cncs2)Cc2ccccc2)cs1 [Cobicistat (GS-9350)] | 0.89 | 0.85 | 0.7 | 0.79 | 0.85 | 0.76
3 | CC[C@H]1OC(=O)[C@H](C)[C@@H](O[C@H]2C[C@@](C)(OC)[C@@H](O)[C@H](C)O2)[C@H](C)[C@@H](O[C@@H]2O[C@H](C)C[C@H](N(C)C)[C@H]2O)[C@](C)(O)C[C@@H](C)C(=O)[C@H](C)[C@@H](O)[C@]1(C)O [Erythromycin] | 0.6 | 1.3 | 0.93 | 1.13 | 0.95 | 1.04
4 | C[C@@H]1C[C@H]2[C@@H]3C[C@H](F)C4=CC(=O)C=C[C@]4(C)[C@@]3(F)[C@@H](O)C[C@]2(C)[C@@]1(O)C(=O)CO [Flumethasone] | 0.96 | 0.77 | 0.87 | 1.17 | 0.78 | 0.88
5 | O=C(O)CCNC(=O)c1ccc(/N=N/c2ccc(O)c(C(=O)O)c2)cc1 [Balsalazide disodium] | 1.02 | 0.91 | 0.96 | 1.14 | 1.23 | 0.92
6 | CCOc1ccccc1OC(c1ccccc1)C1CNCCO1 (centres undefined) [Reboxetine mesylate] | 1.15 | 0.81 | 0.91 | 1.08 | 0.64 | 0.98
7 | O=C(O)CCNC(=O)c1ccccc1 [Betamipron] | 1 | 0.76 | 1.04 | 1.08 | 0.81 | 0.8
8 | O=S(=O)(O)c1cc(O)ccc1O [Ethamsylate] | 0.93 | 1.14 | 1.02 | 0.88 | 1.17 | 1.12
9 | OC[C@H]1O[C@@H](O[C@@H]2[C@@H](CO)OC(O)(CO)[C@H]2O)[C@H](O)[C@@H](O)[C@H]1O (mixture of isomers) [Lactulose] | 0.85 | 0.82 | 1.05 | 1.33 | 1.06 | 1.15
10 | CC(C)OC(=O)CCC/C=C\C[C@@H]1[C@@H](/C=C/[C@@H](O)COc2cccc(C(F)(F)F)c2)[C@H](O)C[C@@H]1O [Travoprost] | 0.84 | 1.11 | 0.88 | 0.98 | 0.79 | 1.38
11 | C=C1CC[C@H](O)C/C1=C/C=C1\CCC[C@]2(C)[C@@H]([C@H](C)CCCC(C)C)CC[C@@H]12 [Vitamin D3] | 1.27 | 0.7 | 1.06 | 0.83 | 0.84 | 0.98
12 | Nc1c(CC(=O)O)cccc1C(=O)c1ccccc1 [Amfenac Sodium Monohydrate] | 0.78 | 0.7 | 0.51 | 0.65 | 0.63 | 0.92
13 | O=C(O)CCc1nc2ccccc2[nH]1 [Procodazole] | 1.11 | 1.31 | 0.74 | 1.13 | 1.02 | 1.22
14 | CCCc1nn(C)c2c(=O)[nH]c(-c3cc(S(=O)(=O)N4CCN(C)CC4)ccc3OCC)nc12 [Sildenafil] | 1.33 | 1.17 | 1.19 | 1.09 | 1.26 | 1.2
15 | CO/N=C(\C(=O)N[C@@H]1C(=O)N2C(C(=O)O)=C(CSc3nc(=O)c(O)nn3C)CS[C@H]12)c1csc(N)n1 [Ceftriaxone Sodium Trihydrate] | 0.65 | 0.67 | 0.8 | 0.93 | 0.83 | 0.83
16 | CCN[C@H]1CN(CCCOC)S(=O)(=O)c2sc(S(N)(=O)=O)cc21 [Brinzolamide] | 0.83 | 0.65 | 0.43 | 0.72 | 0.64 | 0.76
17 | CCCCCOC(=O)Nc1nc(=O)n([C@@H]2O[C@H](C)[C@@H](O)[C@H]2O)cc1F [Capecitabine] | 1.52 | 0.88 | 0.9 | 1.32 | 1.09 | 0.99
18 | O=C1c2cccc(O)c2C(=O)c2c(O)cccc21 [Danthron] | 1.01 | 1.11 | 0.84 | 0.75 | 0.85 | 0.83
19 | C[N+](C)(C)CCOC(=O)CCC(=O)OCC[N+](C)(C)C [Succinylcholine Chloride Dihydrate] | 0.67 | 0.81 | 0.7 | 0.94 | 0.8 | 0.78

From no. 6 up to 10, as listed above:
Row | SMILES | growth (C. auris AR-384; 1 µM) | growth (C. auris AR-384; 10 µM) | growth (C. auris AR-386; 1 µM) | growth (C. auris AR-386; 10 µM) | growth (C. auris AR-387; 1 µM) | growth (C. auris AR-387; 10 µM)
6 | CCOc1ccccc1OC(c1ccccc1)C1CNCCO1 (centres undefined) [Reboxetine mesylate] | 1.15 | 0.81 | 0.91 | 1.08 | 0.64 | 0.98
7 | O=C(O)CCNC(=O)c1ccccc1 [Betamipron] | 1 | 0.76 | 1.04 | 1.08 | 0.81 | 0.8
8 | O=S(=O)(O)c1cc(O)ccc1O [Ethamsylate] | 0.93 | 1.14 | 1.02 | 0.88 | 1.17 | 1.12
9 | OC[C@H]1O[C@@H](O[C@@H]2[C@@H](CO)OC(O)(CO)[C@H]2O)[C@H](O)[C@@H](O)[C@H]1O (mixture of isomers) [Lactulose] | 0.85 | 0.82 | 1.05 | 1.33 | 1.06 | 1.15
10 | CC(C)OC(=O)CCC/C=C\C[C@@H]1[C@@H](/C=C/[C@@H](O)COc2cccc(C(F)(F)F)c2)[C@H](O)C[C@@H]1O [Travoprost] | 0.84 | 1.11 | 0.88 | 0.98 | 0.79 | 1.38
